{
  "sequences": {"note": "Chains of the proteins cited; added tags and fusions are not shown. Lines headed by an entry give the natural chain unless they say otherwise; changes in a name come on top.", "UniProt P08151": "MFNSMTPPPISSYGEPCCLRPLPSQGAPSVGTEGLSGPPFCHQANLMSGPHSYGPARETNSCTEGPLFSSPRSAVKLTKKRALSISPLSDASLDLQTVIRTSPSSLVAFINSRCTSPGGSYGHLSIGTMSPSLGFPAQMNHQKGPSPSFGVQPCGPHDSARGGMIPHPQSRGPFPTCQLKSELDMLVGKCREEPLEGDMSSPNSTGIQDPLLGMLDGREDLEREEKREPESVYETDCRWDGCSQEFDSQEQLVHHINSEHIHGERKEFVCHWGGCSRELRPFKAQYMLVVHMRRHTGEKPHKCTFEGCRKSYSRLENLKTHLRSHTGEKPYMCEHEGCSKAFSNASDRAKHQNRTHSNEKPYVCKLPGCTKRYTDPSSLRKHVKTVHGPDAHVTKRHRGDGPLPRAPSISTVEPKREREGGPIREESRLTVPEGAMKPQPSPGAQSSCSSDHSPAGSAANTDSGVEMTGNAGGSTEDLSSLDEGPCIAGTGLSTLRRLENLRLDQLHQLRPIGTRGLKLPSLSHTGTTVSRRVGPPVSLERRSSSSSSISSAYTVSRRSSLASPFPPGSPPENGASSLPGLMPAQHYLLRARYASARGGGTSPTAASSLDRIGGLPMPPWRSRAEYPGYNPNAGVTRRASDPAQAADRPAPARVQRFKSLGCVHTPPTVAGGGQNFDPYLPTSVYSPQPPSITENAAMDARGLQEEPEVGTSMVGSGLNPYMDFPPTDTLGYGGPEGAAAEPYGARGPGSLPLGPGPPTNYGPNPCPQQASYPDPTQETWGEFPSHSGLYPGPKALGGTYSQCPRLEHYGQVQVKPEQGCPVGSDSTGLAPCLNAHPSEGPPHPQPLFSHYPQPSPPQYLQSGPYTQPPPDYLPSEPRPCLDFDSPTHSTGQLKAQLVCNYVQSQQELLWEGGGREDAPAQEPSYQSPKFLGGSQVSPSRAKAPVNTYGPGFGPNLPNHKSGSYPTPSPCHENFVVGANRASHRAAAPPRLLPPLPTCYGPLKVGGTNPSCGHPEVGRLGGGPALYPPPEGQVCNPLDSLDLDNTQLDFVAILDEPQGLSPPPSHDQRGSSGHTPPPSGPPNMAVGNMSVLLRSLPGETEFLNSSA", "UniProt Q96RU2": "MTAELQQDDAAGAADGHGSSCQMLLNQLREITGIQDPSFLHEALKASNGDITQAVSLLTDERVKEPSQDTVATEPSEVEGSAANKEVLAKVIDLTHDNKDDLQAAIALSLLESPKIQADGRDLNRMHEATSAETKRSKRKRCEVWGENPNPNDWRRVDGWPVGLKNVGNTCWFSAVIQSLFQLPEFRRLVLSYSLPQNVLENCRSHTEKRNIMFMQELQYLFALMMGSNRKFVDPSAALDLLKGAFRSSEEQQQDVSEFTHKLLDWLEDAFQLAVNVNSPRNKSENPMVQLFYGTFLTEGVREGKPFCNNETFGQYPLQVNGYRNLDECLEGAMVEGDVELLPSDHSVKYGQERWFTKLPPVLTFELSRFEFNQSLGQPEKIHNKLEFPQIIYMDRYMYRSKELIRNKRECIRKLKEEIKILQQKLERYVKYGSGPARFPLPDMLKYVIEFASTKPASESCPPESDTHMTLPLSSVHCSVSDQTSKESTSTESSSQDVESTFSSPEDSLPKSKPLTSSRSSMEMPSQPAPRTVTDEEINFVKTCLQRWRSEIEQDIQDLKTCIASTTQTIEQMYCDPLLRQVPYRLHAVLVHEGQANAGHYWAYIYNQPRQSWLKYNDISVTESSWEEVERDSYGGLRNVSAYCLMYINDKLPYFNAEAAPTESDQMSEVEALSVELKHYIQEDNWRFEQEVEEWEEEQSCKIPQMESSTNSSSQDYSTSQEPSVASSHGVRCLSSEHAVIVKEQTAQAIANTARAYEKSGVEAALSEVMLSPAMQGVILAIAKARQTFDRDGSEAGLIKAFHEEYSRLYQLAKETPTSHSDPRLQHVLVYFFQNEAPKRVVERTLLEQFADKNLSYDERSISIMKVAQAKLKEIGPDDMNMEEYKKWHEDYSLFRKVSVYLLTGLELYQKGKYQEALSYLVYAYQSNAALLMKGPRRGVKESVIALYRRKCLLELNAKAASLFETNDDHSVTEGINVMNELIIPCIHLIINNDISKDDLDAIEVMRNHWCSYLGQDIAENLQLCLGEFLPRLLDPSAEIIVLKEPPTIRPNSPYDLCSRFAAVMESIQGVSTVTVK"},
  "source": "paper PMC12486407",
  "target": "GLI1 in GBM cells (co-IP with USP28 constructs; GLI1-IP mass spectrometry) (UniProt P08151)",
  "experiment": "co-IP; GBM cells expressing full-length or truncated USP28 constructs; RIPA lysis buffer with protease inhibitor cocktail; Pierce Co-Immunoprecipitation Kit",
  "note": "These are yes or no findings as the source states them, for the method shown. In cells and extracts the contact can be indirect. A result given as binding can be weak or reduced; the word gives no strength.",
  "data": [
    {"substance": "USP-domain truncated version of USP28 (from UniProt Q96RU2) (domain or fragment)", "values": [
      {"measurement": "binding", "result": "binds"}
    ]}
  ]
}
